Binding data for one substance are collected here from US20190191675A1.

Chains of the proteins cited; added tags and fusions are not shown.
UniProt Q8C147: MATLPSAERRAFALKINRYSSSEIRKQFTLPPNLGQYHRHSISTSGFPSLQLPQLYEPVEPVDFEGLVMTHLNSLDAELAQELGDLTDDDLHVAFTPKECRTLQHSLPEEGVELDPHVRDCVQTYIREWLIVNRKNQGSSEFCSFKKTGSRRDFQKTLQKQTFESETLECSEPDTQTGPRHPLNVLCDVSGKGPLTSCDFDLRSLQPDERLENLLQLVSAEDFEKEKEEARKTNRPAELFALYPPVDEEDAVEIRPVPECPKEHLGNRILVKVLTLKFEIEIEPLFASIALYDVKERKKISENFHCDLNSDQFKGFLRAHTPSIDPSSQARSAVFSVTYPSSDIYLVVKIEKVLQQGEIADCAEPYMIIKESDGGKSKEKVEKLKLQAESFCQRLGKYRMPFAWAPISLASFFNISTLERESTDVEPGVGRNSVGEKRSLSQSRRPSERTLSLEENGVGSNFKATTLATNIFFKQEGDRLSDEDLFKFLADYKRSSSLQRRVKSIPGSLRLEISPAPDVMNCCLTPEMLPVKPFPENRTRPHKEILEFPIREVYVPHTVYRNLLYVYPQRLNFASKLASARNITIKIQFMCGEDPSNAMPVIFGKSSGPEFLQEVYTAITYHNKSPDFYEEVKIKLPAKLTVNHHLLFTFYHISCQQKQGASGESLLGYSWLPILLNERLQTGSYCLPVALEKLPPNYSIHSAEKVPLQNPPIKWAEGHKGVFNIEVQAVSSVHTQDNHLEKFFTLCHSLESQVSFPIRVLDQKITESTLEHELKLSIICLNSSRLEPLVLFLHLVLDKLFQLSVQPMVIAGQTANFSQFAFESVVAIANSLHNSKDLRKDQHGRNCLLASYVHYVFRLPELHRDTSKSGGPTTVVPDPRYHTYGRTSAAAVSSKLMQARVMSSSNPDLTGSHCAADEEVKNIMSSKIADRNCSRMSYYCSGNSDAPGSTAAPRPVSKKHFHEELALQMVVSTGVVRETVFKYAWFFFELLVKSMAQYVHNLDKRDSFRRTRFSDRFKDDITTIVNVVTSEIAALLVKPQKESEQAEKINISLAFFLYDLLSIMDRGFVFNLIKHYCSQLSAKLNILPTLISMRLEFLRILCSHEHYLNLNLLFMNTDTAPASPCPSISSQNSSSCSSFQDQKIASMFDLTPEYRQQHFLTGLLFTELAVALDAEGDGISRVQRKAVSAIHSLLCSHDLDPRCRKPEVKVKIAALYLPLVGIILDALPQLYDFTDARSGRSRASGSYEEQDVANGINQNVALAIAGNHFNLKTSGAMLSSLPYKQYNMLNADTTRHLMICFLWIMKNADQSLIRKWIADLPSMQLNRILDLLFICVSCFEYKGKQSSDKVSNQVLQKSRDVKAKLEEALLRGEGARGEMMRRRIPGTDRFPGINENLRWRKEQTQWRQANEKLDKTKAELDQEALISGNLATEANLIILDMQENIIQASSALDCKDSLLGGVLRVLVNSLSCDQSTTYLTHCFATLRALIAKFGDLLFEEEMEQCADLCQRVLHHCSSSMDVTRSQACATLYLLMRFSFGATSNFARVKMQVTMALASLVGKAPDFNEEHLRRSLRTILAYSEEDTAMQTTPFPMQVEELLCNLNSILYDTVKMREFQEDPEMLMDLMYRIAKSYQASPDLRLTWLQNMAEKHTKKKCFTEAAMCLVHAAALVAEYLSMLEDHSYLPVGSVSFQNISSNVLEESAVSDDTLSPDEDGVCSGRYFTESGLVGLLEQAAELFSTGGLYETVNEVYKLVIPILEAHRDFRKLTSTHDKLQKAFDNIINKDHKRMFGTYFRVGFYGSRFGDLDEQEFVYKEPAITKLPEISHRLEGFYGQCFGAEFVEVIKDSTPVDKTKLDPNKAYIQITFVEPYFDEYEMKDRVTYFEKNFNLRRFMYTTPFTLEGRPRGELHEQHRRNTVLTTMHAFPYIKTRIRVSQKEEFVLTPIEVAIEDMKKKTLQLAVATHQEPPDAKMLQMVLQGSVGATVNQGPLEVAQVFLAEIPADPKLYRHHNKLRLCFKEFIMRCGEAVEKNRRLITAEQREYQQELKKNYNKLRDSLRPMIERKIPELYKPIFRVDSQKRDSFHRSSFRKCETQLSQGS

Test [1] addresses T1, FLAG-tagged or V5-tagged mouse MST1 (pcDNA-MST1) (mouse) (UniProt Q9JI11).
T1 sequence (looked up): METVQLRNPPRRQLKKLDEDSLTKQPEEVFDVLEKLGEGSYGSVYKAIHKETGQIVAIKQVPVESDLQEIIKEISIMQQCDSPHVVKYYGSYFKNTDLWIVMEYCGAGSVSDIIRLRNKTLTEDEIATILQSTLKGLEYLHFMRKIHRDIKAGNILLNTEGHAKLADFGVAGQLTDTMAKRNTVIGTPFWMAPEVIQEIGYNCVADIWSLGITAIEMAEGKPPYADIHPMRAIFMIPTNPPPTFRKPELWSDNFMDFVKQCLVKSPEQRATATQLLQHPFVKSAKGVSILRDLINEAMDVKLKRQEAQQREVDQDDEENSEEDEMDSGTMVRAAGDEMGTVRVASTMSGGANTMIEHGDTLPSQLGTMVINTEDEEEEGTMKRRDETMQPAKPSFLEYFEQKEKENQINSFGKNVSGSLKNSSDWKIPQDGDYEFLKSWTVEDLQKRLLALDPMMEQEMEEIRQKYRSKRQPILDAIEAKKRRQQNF
In words: co-immunoprecipitation, FIG. 36(a).

Test [2] deals with T1, FLAG-tagged or V5-tagged mouse MST1 (pcDNA-MST1) (mouse). The test can be described thus: search for binding proteins; co-immunoprecipitation.

These are yes or no findings as the source states them, for the method shown. Binding seen in cells or lysates may run through a third protein. Some results given as binding are weak or reduced against the parent protein; the word gives no strength. Sequences can lack the tags named with a protein.

Take “HA-tagged mouse DOCK8 (pcDNA-DOCK8) (from UniProt Q8C147 1-2100)”: the binding entry in test [1] and in test [2] was “binds” in each case.
